For two substances, binding results are on record in publication PMC5992430.

Protein sequences, listed by entry. Tags and fused reporters are not part of them. Residues count along the entry.
UniProt P02769, residues 25-607: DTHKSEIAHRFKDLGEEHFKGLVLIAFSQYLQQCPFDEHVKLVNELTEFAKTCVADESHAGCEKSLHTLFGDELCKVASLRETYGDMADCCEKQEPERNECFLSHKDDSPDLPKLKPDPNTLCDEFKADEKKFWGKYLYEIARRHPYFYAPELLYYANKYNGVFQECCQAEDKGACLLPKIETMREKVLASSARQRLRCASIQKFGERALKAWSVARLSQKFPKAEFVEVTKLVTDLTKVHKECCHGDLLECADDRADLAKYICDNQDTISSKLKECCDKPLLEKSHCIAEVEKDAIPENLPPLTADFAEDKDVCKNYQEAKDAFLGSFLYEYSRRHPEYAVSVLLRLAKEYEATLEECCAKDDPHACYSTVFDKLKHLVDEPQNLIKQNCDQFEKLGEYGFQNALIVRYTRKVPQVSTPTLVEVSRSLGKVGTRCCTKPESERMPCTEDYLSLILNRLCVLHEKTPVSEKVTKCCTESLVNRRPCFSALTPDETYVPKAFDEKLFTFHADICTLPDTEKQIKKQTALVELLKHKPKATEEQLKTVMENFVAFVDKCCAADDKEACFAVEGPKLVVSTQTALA
UniProt P48357, residues 22-839: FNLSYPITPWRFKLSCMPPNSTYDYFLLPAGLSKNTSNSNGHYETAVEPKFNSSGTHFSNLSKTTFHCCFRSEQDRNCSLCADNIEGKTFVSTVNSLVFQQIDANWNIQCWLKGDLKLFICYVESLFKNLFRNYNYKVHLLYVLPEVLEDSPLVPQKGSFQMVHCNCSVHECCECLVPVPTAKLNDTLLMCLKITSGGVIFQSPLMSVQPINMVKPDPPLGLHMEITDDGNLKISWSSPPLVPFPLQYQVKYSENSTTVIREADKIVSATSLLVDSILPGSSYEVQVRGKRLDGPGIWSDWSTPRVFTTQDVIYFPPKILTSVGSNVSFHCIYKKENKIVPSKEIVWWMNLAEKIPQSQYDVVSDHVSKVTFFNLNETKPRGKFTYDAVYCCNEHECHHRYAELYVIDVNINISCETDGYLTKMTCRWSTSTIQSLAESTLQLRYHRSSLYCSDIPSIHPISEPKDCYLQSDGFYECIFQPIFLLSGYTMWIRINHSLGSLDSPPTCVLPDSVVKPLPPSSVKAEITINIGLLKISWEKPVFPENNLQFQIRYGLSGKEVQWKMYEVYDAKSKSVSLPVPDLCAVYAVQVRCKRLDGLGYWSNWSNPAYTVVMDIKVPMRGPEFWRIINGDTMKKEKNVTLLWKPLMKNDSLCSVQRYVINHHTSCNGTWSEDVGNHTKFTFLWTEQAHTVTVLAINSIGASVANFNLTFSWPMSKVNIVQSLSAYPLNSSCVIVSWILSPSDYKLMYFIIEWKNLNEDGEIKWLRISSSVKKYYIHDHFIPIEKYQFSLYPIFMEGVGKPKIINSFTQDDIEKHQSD

These are yes or no findings as the source states them, for the method shown. For some assays here: Binding seen in cells or lysates may run through a third protein. Some binding calls cover weakened binding; strength is not graded here.

In experiment [1] the target is T1, Monomeric CRP prepared from human serum CRP (human) (UniProt P02741).
T1 sequence: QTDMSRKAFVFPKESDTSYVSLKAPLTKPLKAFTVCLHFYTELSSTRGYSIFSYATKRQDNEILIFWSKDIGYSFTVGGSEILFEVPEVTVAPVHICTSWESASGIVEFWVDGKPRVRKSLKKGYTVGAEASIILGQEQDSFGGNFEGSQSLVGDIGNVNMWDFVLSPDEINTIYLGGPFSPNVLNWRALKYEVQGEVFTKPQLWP
Kind of experiment: ELISA; same solid phase binding assay with heat-treated mCRP coated on the plate (different concentrations, or 0.6 µg/ml); both purified.

The target of experiment [2] is T2, Monomeric CRP prepared from recombinant CRP (UniProt P02741).
T2 sequence: T1 sequence
In words: ELISA; solid phase binding assay; CRP forms or control proteins coated on a 96-well plate at 4°C overnight in Tris/HCl 0.05 M pH 7.4 (different concentrations, or 0.6 µg/ml for Figure 5B); blocked with 0.5% gelatin; leptin receptor 100 ng/ml in 50 µl PBS added for 1 h at RT; detected with anti-Ob R antibody and HRP anti-rabbit IgG; both purified. Background: In an ELISA, binding on a coated surface is turned into a signal by an enzyme label.

The target of experiment [3] is Lysozyme (UniProt P00698). The experiment is described as above.
In experiment [4] the target is Serum albumin (BSA) (bovine (printed as BSA)) (UniProt P02769). Described as above.
Experiment [5] has as its target T3, C-reactive protein of human serum (human (endogenous in human serum)) (UniProt P02741).
T3 sequence: T1 sequence
In words: co-IP; human serum immunoprecipitated with anti-Ob R or anti-CRP and protein A beads; SDS-PAGE and Western blot probed with anti-CRP or anti-sOb R, ECL. On the technique in general: In western blotting, separated proteins are transferred to a membrane and probed.

In the case of “Soluble recombinant human leptin receptor (from UniProt P48357 22-839)”, the binding entry in experiment [1] is given as “no binding (condition: heat-treated mCRP)”; in experiment [2], “binds”; in experiment [3] it was “no binding (tested: 100 µg/ml coated)”; in experiment [4], “no binding (tested: 100 µg/ml coated)”.

Regarding “Soluble leptin receptor of human serum (from UniProt P48357 22-839)”, the binding entry in experiment [5] was “binds”.
